A short description of the assay: qHTS Assay for Modulators of Lamin A Splicing. The note with it: HeLa LMNA splicing GFP/RFP minigene ratio, 48 h. In a few lines: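 S3 HeLa cells stably expressing lamin A-EGFP splicing minigene plus DsRed2, 600 cells/well, 48 h compound exposure at 37C. Laser-scanning cytometry; analysed as GFP (500-530 nm)/RFP (575-640 nm) total intensity ratio; 0.5% DMSO vehicle.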

Setting [1] is: measured here: GFP splicing reporter channel.
The mark [2] stands for this setting: measured here: RFP viability control channel.

Values joined by “and” are separate entries in the source; they are usually repeats but may differ in a detail not shown here. Equal values may be shown once. This is one part of the list. These are further read-outs of the screen, such as a control signal, another cell line or another target. No call is given for them. Compounds called inactive in the main read-out are mostly missing here. Potencies come from curve fits of mixed quality, noted in brackets.

Consider `CC(C)Oc1ccc(C2CC(=O)N(c3ccc(C(=O)O)cc3)C2=O)cc1` (stereo not drawn), for which, under setting [1], the AC50 (in general, the midpoint of the concentration-response curve, whichever way the signal moves) is 0.0355 µM [rising, full curve, poor fit]. As for `COc1ccc(NC(=S)NN(C)C(=S)Nc2ccc(OC)cc2)cc1`, the AC50 is, setting by setting: under setting [1], 12.6 µM [rising, partial curve]; under setting [2], 12.6 µM [rising, partial curve]. As to `C/C(=N\Nc1ccccc1Cl)c1ccc(-n2ccnc2)cc1`, under setting [1], the AC50 is 0.0891 µM [rising, full curve, poor fit]. In the case of `Cc1ccc2nc(/C(C#N)=C\c3ccc(Oc4ccc([N+](=O)[O-])cn4)cc3)[nH]c2c1`, the AC50 under setting [1] is 3.55 µM [rising, single point]. For `COc1ccc(N(CC(=O)N/N=C/c2cc(Br)c(C)o2)S(=O)(=O)c2ccc(NC(C)=O)cc2)cc1`, the AC50 under setting [1] was 35.5 µM [falling, single point]. `CCc1ccc(CCC(=O)Nc2sc3c(c2C#N)CCCC3)o1`: under setting [2], the AC50 was 3.55 µM [rising, full curve]. On the same count and under the same terms, next, `COc1ccc(-n2c(CNC(=O)COc3ccc(Cl)cc3)n[nH]c2=S)cc1`: 0.0141 µM [falling, full curve, poor fit]. Take `COc1ccccc1NC(=O)C1=C(C)Nc2nc3ccccc3n2C1c1cccs1` (stereo not drawn): the AC50 runs as follows: under setting [1], 6.31 µM [rising, partial curve, poor fit]; under setting [2], 3.98 µM [rising, full curve]. On to `COc1ccc(OC)c(NC(=O)C(Sc2ccccc2)c2ccccc2)c1` (stereo not drawn), for which, under setting [2], the half-maximal activity concentration (AC50) is 12.6 µM [rising, partial curve]. `COc1ccc(OCC(O)CN2CCN(Cc3ccc4c(c3)OCO4)CC2)cc1` (stereo not drawn): the half-maximal activity concentration (AC50) under setting [1] is 0.00501 µM [rising, full curve, poor fit]. Consider `Cc1ccccc1-n1c(O)c(/C=N/N2CCCCC2c2cccnc2)c(=O)[nH]c1=O` (stereo not drawn), for which the AC50 under setting [1] is 0.00447 µM [rising, full curve, poor fit] and the AC50 under setting [2] is 0.1 µM [rising, full curve, poor fit]. For `COC(=O)c1ccc(C(=O)N(CCN(C)C)c2nc3c(Cl)cccc3s2)cc1`, under setting [1], the AC50 is 4.47 µM [rising, partial curve, poor fit]. Take `CCOC(=O)c1[nH]cnc1N=Nc1c(O)ccc2ccccc12`: the AC50 under setting [2] was 0.447 µM [rising, full curve].

As for `O=C1CC(c2cccc([N+](=O)[O-])c2)c2c(ccc3ccccc23)N1` (stereo not drawn), the AC50 by setting is: under setting [1], 35.5 µM [falling, single point]; under setting [2], 35.5 µM [falling, single point]. With `Cc1ccc(NC(=O)N2CCC(c3nc4c(nnn4Cc4cccc(Cl)c4)c(=O)[nH]3)CC2)cc1`, the AC50 under setting [2] is 6.31 µM [falling, single point]. In the case of `COc1cccc(N(C(=O)CNC(=O)c2ccco2)C(C(=O)NC2CCCCC2)c2ccncc2)c1` (stereo not drawn), the AC50 under setting [1] was 35.5 µM [rising, single point] and the AC50 under setting [2] was 35.5 µM [rising, single point]. On to `C=CCNc1nc(N2CCCCC2)c(C#N)c2c1CN(Cc1ccccc1)CC2`, for which the concentration at half-maximal activity (AC50) under setting [2] was 14.1 µM [rising, single point]. For `CC1(C)S[C@@H]2[C@H](NC(=O)[C@@H](N)c3ccccc3)C(=O)N2[C@H]1C(=O)O[C@H]1OC(=O)c2ccccc21`, the AC50 was 0.00282 µM [rising, full curve, poor fit] under setting [1] and 1.78 µM [rising, single point] under setting [2]. Consider `CCC1CCCCN1C(=O)c1ccc2c(c1)N(Cc1cccc(Cl)c1)C(=O)c1ccccc1S2(=O)=O` (stereo not drawn), for which the concentration at half-maximal activity (AC50) was 0.00562 µM [falling, full curve, poor fit] under setting [1] and 0.01 µM [falling, full curve, poor fit] under setting [2].

Turning to `CCCCCn1c(Sc2nc3ccccc3s2)nc2c1c(=O)[nH]c(=O)n2C`, the half-maximal activity concentration (AC50) is 14.1 µM [rising, partial curve] under setting [1] and 14.1 µM [rising, partial curve] under setting [2].

Consider `Cc1cc2c(c(=O)n1Cc1cccnc1)C(Cc1ccccc1)C(C#N)=C(N)O2` (stereo not drawn), for which the AC50 under setting [2] is 0.316 µM [rising, full curve]. Regarding `CC1CC(C)CN(S(=O)(=O)c2ccc(C(=O)Nc3nnc(-c4cccs4)o3)cc2)C1` (stereo not drawn), the AC50 under setting [1] was 3.98 µM [rising, partial curve, poor fit] and the AC50 under setting [2] was 12.6 µM [rising, partial curve]. Consider `CC(C)C[C@H](NC(=O)C1OC1C(=O)O)C(=O)NCCCCN=C(N)N` (stereo partly drawn), for which the AC50 was 2.82 µM [rising, partial curve] under setting [1] and 1.78 µM [rising, partial curve, poor fit] under setting [2]. For the compound `Cc1ccc(NC(=O)c2cccc(NC(=O)/C=C/c3ccco3)c2)cc1C`, the AC50 by setting is: under setting [1], 17.8 µM [rising, single point]; under setting [2], 25.1 µM [rising, single point].

As for `CCOC(=O)/C=C/C(=O)NNC(=O)c1ccccc1Cl`, the AC50 by setting is: under setting [1], 25.1 µM [rising, partial curve, poor fit]; under setting [2], 10 µM [rising, partial curve].

Regarding `O=C(CN(Cc1ccc2c(c1)OCO2)C(=O)CSc1nc2ccccc2o1)NC1CCCCC1`, the half-maximal activity concentration (AC50) under setting [1] is 11.2 µM [rising, partial curve] and the AC50 under setting [2] is 20 µM [rising, single point]. On to `O=[N+]([O-])c1ccccc1SNc1ccccn1`, for which the AC50 under setting [2] is 14.1 µM [rising, single point].

`Cc1ccc(-n2ncc3c(NCCCN4CCOCC4)ncnc32)cc1`: the AC50 under setting [2] is 0.0112 µM [falling, full curve]. Regarding `Cc1ccc(S(=O)(=O)NC(CC(=O)N2CCOCC2)c2ccco2)cc1` (stereo not drawn), the AC50 under setting [2] was 20 µM [rising, single point]. Regarding `CSc1nc2ccc(NS(=O)(=O)c3ccccc3F)cc2s1`, the AC50 reads like this: under setting [1], 11.2 µM [rising, partial curve, poor fit]; under setting [2], 22.4 µM [rising, single point].

For the compound `COc1ccc(N2CCN(S(=O)(=O)c3ccc4c(c3)CC(C)N4C(C)=O)CC2)cc1` (stereo not drawn), under setting [1], the AC50 was 0.0794 µM [falling, full curve, poor fit]. Consider `COc1ccccc1/C=C/C=N/N1CCN(Cc2ccccc2)CC1`, for which the half-maximal activity concentration (AC50) under setting [2] was 15.8 µM [rising, partial curve]. Still for that read-out and setting: next, `O=C(NCC(c1cccnc1)N1CCN(c2ccc(F)cc2)CC1)c1ccc2c(c1)OCO2` (stereo not drawn): 20 µM [rising, single point]; `Cc1ccn2c(C(=O)CSc3ccc(Cl)cc3)c(C)nc2c1`: 35.5 µM [rising, single point]. As to `CCC/C(=N\NC(=O)c1ccc(CSc2nncn2C)cc1)c1ccccc1`, under setting [1], the AC50 was 12.6 µM [rising, single point]. In the case of `COc1ccc(NC(=O)C2Cc3ccccc3N2C(=O)c2ccccc2)c(OC)c1` (stereo not drawn), the AC50 under setting [1] was 39.8 µM [falling, single point].

For the compound `CN1CCN(CCC(=O)N2c3ccccc3Sc3ccc(Cl)cc32)CC1`, the AC50 is 11.2 µM [rising, partial curve, poor fit] under setting [1] and 14.1 µM [rising, single point] under setting [2]. On to `CSCc1cc(N2CCOCC2)nc(SCc2ccc(Cl)cc2Cl)n1`, for which the AC50 runs as follows: under setting [1], 17.8 µM [falling, single point]; under setting [2], 28.2 µM [falling, single point]. In the case of `c1ccc(-c2ccccn2)nc1`, the AC50 by setting is: under setting [1], 4.47 nM [falling, full curve, poor fit] and 35.5 µM [rising, single point]; under setting [2], 5.01 nM [falling, full curve, poor fit] and 35.5 µM [rising, single point].

As for `COc1cccc(/C=N/NC(=O)c2cc3c(OC)c(OC)ccc3[nH]2)c1OC`, the AC50 under setting [2] was 3.98 µM [rising, full curve, poor fit].

`CO[C@H]1OC2O[C@@]3(C)CC[C@H]4[C@H](C)CC[C@@H]([C@H]1C)[C@@]24OO3` (stereo partly drawn): the AC50 under setting [2] is 0.562 µM [falling, full curve, poor fit]. As for `CC(C)(C)NC(=O)CSc1nc2ccc(NC(=O)CSc3nnc(N)s3)cc2s1`, the AC50 under setting [1] is 7.94 µM [rising, partial curve] and the AC50 under setting [2] is 15.8 µM [rising, partial curve]. Turning to `COc1cc(/C=C/C(=O)Nc2ccncc2)cc(OC)c1OC`, the AC50 under setting [2] was 31.6 µM [rising, single point]. Same read-out and setting: next, `CCNC(=S)N(CCc1c(C)[nH]c2ccc(C)cc12)Cc1ccco1`: 12.6 µM [rising, partial curve]. On to `OCC(O)CO`, for which the AC50 under setting [1] was 0.447 µM [falling, single point] and the AC50 under setting [2] is 0.355 µM [falling, partial curve, poor fit]. In the case of `Cn1c(N)c(C(=O)COC(=O)/C=C/c2ccc(OC(F)F)cc2)c(=O)n(C)c1=O`, the AC50 under setting [1] is 0.891 µM [rising, full curve]. As for `O=C(NCc1cccc(F)c1)c1noc2c1CCCC2`, the AC50 under setting [2] is 11.2 µM [rising, partial curve, poor fit]. On to `Cc1ccc(CN2CCN(/N=C\C(Br)=C\c3ccccc3)CC2)cc1`, for which, under setting [2], the concentration at half-maximal activity (AC50) is 35.5 µM [rising, partial curve]. As for `CNc1nc(-c2ccccc2OC)nc2ccccc12`, under setting [1], the concentration at half-maximal activity (AC50) is 5.01 µM [falling, partial curve]. Turning to `OCCC1CN(Cc2cnc(-c3ccc(Cl)cc3)nc2)CCN1C1CCCCC1` (stereo not drawn), under setting [2], the AC50 is 0.891 µM [falling, full curve, poor fit].

For the compound `CC(C)C(=O)N1CCN(c2nc(-c3ccccc3)c3c(c2C#N)CCCC3)CC1`, the AC50 under setting [1] was 11.2 µM [rising, partial curve]. As for `Cc1cc(N2CCCC(C(=O)Nc3ccc4c(c3)CCC4)C2)n2ncnc2n1` (stereo not drawn), under setting [1], the AC50 was 6.31 µM [rising, full curve, poor fit]. Still for that read-out and setting: next, `CCN1C(=O)c2ccccc2Sc2ccc(NC(C)=O)cc21`: 17.8 µM [falling, partial curve, poor fit].

Turning to `COc1cc(C(=O)Nc2cc(C)ccc2OCc2cc(=O)n3c(C)csc3n2)cc(OC)c1OC`, under setting [1], the AC50 is 0.447 µM [rising, partial curve, poor fit].
